Earlier results as cited in US20230321008A1, “INHIBITORS OF ACID SPHINGOMYELINASE FOR PREVENTING AND TREATING THE COVID-19 DISEASE” (priority 2020, published 2023).

Target: T1, acid sphingomyelinase (ASM) (Homo sapiens, UniProt P17405)
T1 sequence (P17405 47-631): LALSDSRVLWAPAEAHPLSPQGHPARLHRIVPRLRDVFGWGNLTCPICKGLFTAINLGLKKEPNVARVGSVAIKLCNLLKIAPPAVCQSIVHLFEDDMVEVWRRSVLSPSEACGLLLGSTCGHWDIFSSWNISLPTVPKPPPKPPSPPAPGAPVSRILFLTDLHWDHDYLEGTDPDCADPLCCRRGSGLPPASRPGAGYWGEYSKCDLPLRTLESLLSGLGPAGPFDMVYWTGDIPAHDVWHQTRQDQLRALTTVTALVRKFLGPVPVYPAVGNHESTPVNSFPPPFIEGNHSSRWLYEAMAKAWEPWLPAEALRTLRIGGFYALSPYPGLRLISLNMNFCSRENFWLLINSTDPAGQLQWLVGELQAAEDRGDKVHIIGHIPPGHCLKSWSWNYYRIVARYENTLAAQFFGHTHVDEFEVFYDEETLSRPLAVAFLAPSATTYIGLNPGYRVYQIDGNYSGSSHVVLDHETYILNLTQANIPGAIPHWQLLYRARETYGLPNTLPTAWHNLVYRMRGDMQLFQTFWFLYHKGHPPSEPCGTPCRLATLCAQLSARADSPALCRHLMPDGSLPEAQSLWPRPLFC
Details: cited from earlier work

| Compound | In vitro inhibition of acid sphingomyelinase (in words) |
| --- | --- |
| CN1CCC[C@@H]1CCO[C@](C)(c1ccccc1)c1ccc(Cl)cc1 [clemastine] | in vitro inhibit acid sphingomyelinase with varying degrees |
| Clc1ccc2c(c1)CCc1cccnc1C2=C1CCNCC1 [Desloratadine, desloratadine] | in vitro inhibit acid sphingomyelinase with varying degrees |
| CCN(CC)CCOC(=O)C1(C2CCCCC2)CCCCC1 [dicycloverine] | in vitro inhibit acid sphingomyelinase with varying degrees |
| C(=C\c1ccccc1)/CN1CCN(C(c2ccccc2)c2ccccc2)CC1 [cinnarizine] | in vitro inhibit acid sphingomyelinase with varying degrees |
